We go through two compounds from US20030188756A1, “Treatment of inflammatory bowel disease with vitamin d compounds” (priority 2002, published 2003).

Common to all, as to format: in vivo
The subject of series [1] is WT mice. In words: Short term (2 weeks, 0.2 μg/d) 1,25(OH)2D3 treatment of WT mice. The conditions noted are these: 0.2 μg/d 1,25(OH)2D3 for 2 weeks from 7 weeks of age, mean ± SEM.
The subject of series [2] is WT mice. In words: 1,25(OH)2D3 supplementation (0.005 μg/d, 4 weeks) of vitamin D deficient WT mice. From the text: MICE. Age and sex matched C57BL/6 IL-10 KO, and wildtype (WT) mice were produced in the Pennsylvania State University breeding colony; the breeding pairs were obtained from Jackson Laboratory (Bar Harbor, Me.). The animal facilities at the Pennsylvania State University are specific pathogen free and therefore breeding IL-10 KO mice was successful. All of the procedures described were reviewed and approved by the Pennsylvania State University Institutional Animal Care and Use Committee on Jan. 25, 1999, IACUC# number: 98118-A0.
DIETS. […]
The 3 week old vitamin D deficient mice were randomly assigned to various treatment groups as described below. […] Symptoms of hypercalcemia monitored daily included overall health and weight loss. […]
SERUM MEASUREMENTS. […] Serum was collected every 2 weeks and serum calcium measured (normal for mice is 2.00-2.75 mmol/L). Vitamin D deficiency was also monitored by serum calcium analysis (serum calcium less then 1.75 mmol/L). […] Red blood cells were counted using a hemocytometer.
IBD SEVERITY. Mortality associated with the development of diarrhea was recorded in IL-10 KO and WT mice. […] Four or more paraffin sections (4 microns) from each mouse were scored using the exact procedure described by Kuhns et. al (1993). The sections were scored blindly on a scale of 0 to 5 for inflammation. […]

The test system of series [3] is WT mice. In words: Food restriction experiment, WT mice on cholecalciferol diet (+D restricted). The conditions noted are these: mean ± SEM.
[4] abbreviates: 5.0 μg/d cholecalciferol for 4 weeks.

For the compound `C=C1/C(=C\C=C2/CCC[C@]3(C)[C@@H]([C@H](C)CCCC(C)(C)O)CC[C@@H]23)C[C@@H](O)C[C@@H]1O` [1,25(OH)2D3, 1,25-dihydroxycholecalciferol], in series [1], the “Small Intestine g” value is listed as 1.06 ± 0.04 g and the “Small Intestine g/100 g body” value is 5.3 ± 0.2 g/100 g body. Further, the “Weight” value in series [2] (0.005 μg/day 1,25(OH)2D3 for 4 weeks, 9 weeks of age, mean ± SEM) is 21.1 ± 1.0 g. For the same compound, the “Histology Score” value in series [2] (small intestine inflammation, scale 0 to 5, 0.005 μg/day for 4 weeks) was determined as 0.

Consider `C=C1CC[C@H](O)C/C1=C/C=C1\CCC[C@]2(C)[C@@H]([C@H](C)CCCC(C)C)CC[C@@H]12` [cholecalciferol], for which the “Weight” value in series [3] (5.0 μg/d cholecalciferol for 4 weeks from 5 weeks of age) came out at 15.9 ± 1.1 g. Also, in series [3] (setting [4]), the “Small Intestine g” value was determined as 0.85 ± 0.06 g and the “Small Intestine g/100 g body” value is 6.7 ± 0.2 g/100 g body.
